Laboratory results as given in publication PMC7459631.
Results are given in words; binding and its absence hold for the method and conditions named. In cells and extracts the contact can be indirect. Some binding calls cover weakened binding; strength is not graded here. Sequences can lack the tags named with a protein.

Biological target: T1, mWasabi-tagged ANT2 (human) (UniProt P05141)
T1 sequence: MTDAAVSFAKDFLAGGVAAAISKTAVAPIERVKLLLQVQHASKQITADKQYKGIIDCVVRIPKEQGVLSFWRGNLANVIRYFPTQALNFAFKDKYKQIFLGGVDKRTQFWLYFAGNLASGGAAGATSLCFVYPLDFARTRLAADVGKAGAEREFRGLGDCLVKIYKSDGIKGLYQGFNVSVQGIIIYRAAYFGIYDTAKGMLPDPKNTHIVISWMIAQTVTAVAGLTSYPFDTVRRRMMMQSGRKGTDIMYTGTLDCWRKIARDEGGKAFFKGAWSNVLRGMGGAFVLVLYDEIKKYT
Assay: pull-down; mWasabi-ANT2 pulled down from 1 mg lysate of transfected A549 cells with mWasabi antibody and Dynabeads; pulled-down protein incubated with 10 µg TP4 overnight at 4 °C, washed, immunoblot with TP4 antibody; only the binder purified

binding: binds
Binder: FIHHIIGGLFSAGKAIHRLIRRRRR [Tilapia piscidin 4 (TP4)]
